{"source": "patent US20070208043A1", "about": "“Use of Serum Amyloid A Gene in Diagnosis and Treatment of Glaucoma and Identification of Anti-Glaucoma Agents” (ALCON, INC., priority 2003, published 2007)", "tested_on": "SAA induced IL-8 secretion in TM cells", "assay": "Inhibition of SAA induced IL-8 secretion in TM cells (IL-8 in media by ELISA)", "format": "cell-based", "conditions": "4 h, read-out: Calculated IC50, inhibition of SAA stimulated IL-8 secretion", "protocol": "FIG. 11. Effect of MAP p38 kinase inhibitors on induction of IL-8 by SAA treatment (1 μg/ml) in TM cells. […] IL-8 was measured in the media by ELISA.\nFIG. 12. […] NTM650-03, p9 or HL-60 cells were treated in serum-free DMEM for 4 hours with 1 μg/ml SAA and the indicated concentrations of SB202580. IL-8 was measured in the media by ELISA.\nOne pathway for upregulation of IL-8 is through activation of MAP kinases.", "data": [{"smiles": "C[S+]([O-])c1ccc(-c2nc(-c3ccc(F)cc3)c(-c3ccncc3)[nH]2)cc1", "note": "(stereo not shown) [SB203580, 4-(4-fluorophenyl)-2-(4-methylsulfinylphenyl)-5-(4-pyridyl)-1H-imidazole]", "values": [{"measurement": "IC50", "value": 15, "unit": "µM"}]}]}
